We go through one molecule from PMC9988979.

Results are given in words; binding and its absence hold for the method and conditions named. In cells and extracts the contact can be indirect. These calls come from enrichment with a bait or labelling near it, and not all partners need be listed. Sequences can lack the tags named with a protein.

The assay has as its target T1, Flag-tagged ACOX1 (acyl-CoA oxidase 1) (human) (UniProt Q15067).
T1 sequence: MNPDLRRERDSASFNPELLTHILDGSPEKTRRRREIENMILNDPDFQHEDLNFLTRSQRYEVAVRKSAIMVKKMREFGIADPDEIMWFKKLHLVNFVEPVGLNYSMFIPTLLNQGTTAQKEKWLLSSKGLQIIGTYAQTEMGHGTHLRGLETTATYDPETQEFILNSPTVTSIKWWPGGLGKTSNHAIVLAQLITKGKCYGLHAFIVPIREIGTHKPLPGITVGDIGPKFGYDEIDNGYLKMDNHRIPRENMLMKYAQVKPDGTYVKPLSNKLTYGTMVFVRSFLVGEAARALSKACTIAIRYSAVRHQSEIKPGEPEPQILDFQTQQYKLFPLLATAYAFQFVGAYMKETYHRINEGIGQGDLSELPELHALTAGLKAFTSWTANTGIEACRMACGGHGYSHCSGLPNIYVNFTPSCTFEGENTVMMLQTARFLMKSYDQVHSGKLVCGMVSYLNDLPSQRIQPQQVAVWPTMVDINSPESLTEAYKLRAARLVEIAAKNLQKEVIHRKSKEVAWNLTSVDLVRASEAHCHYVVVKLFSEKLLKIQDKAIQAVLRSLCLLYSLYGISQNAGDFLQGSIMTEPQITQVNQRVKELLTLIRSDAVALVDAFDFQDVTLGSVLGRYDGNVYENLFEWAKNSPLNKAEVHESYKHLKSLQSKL
Briefly: affinity purification with mass spectrometry; Flag-ACOX1 expressed in HEK293T, precipitated with anti-Flag agarose beads, SDS-PAGE bands digested and analysed by MS; hit taken from the overlap with published MS data.

B1: DUSP14, endogenous (enzyme, UniProt O95147 1-198)
chain: MSSRGHSTLPRTLMAPRMISEGDIGGIAQITSSLFLGRGSVASNRHLLQARGITCIVNATIEIPNFNWPQFEYVKVPLADMPHAPIGLYFDTVADKIHSVSRKHGATLVHCAAGVSRSATLCIAYLMKFHNVCLLEAYNWVKARRPVIRPNVGFWRQLIDYERQLFGKSTVKMVQTPYGIVPDVYEKESRHLMPYWGI
As to B1, the binding entry is listed as “binds”.
